PubChem BioAssay AID652243 – Drosophila RNAi Screening Center – 2013

Test: 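Knock-downs that decrease or increase androgen receptor reporter signal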 (primary screen)
Cell system: Drosophila S2R+ cells
Knock-down reagent: long dsRNA against Drosophila genes
Time to read-out: 72 h (48 h, then 24 h hormone)
Challenge: synthetic androgen R1881 at 10 nM for 24 h
Measured: 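Per-well raw luminescence of the androgen-driven firefly reporter and of the Renilla control, two replicates each, without normalisation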
Scale: firefly reporter light: higher = more light from androgen-responsive reporter; Renilla control light: higher = more constitutive control signal (cell number, transfection)
Active means: 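Hit when the log firefly-to-Renilla ratio dropped or increased by a fixed fold versus the mean of GFP or LacZ controls across duplicate plates; lowering cut given as 1.5 and as 3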
Calls: active = hit: reporter lowered or raised; inactive = no hit
The deposit covers about 24,000 reagents; shown is a random part of those with a known target gene and a result. Over the whole deposit, 246 (1%) are marked active. 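Plates not normalised; calls are printed but the firefly/Renilla ratio behind them is not deposited; fold cut for lowering reported inconsistently.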 The raw values are shown without normalisation. Unmarked entries are inactive. Names joined by + are all predicted targets of the reagent. Not given: the amount of reagent.

Target gene	dsRNA	firefly reporter light, replicate 1	firefly reporter light, replicate 2	Renilla control light, replicate 1	Renilla control light, replicate 2
CG10845	DRSC14272	1.63e5	1.70e5	1.78e6	2.15e6
CG3803	DRSC04420	2.97e5	2.71e5	1.67e6	1.51e6
Tao	DRSC19573	4.19e5	3.62e5	3.81e6	2.31e6
Tao	DRSC19574	4.30e5	2.40e5	2.74e6	2.01e6
Tao	DRSC22639	4.79e5	5.74e5	1.89e6	1.68e6
Tao	DRSC28431	2.34e5	4.43e5	5.32e5	7.55e5
128up	DRSC05027	1.32e6	5.57e5	2.70e6	1.06e6
128up	DRSC24366	9.85e5	6.67e5	8.52e5	9.92e5
CG10126	DRSC14191	74202	1.03e5	4.24e5	6.79e5
CG15345 (retired record)	DRSC18030	6.00e5	8.12e5	1.88e6	1.67e6
CG15345 (retired record)	DRSC22712	2.93e5	2.06e5	1.04e6	6.31e5
Sgp	DRSC02195	6.94e5	6.81e5	1.62e6	1.59e6
CG18335	DRSC06723	1.04e5 (active)	1.11e5	1.10e6	8.28e5
CG18335	DRSC29997	4.67e5	3.32e5	1.22e6	1.22e6
CG17292	DRSC02594	6.34e5	5.77e5	2.23e6	1.89e6
CG17292	DRSC27746	1.97e5	1.81e5	6.01e5	8.99e5
CG6689	DRSC16095	61677	76681	3.83e5	3.27e5
CG6689	DRSC28313	4.18e5	6.40e5	1.13e6	1.47e6
CG3328	DRSC04357	4.88e5	3.58e5	1.35e6	1.35e6
CG3328	DRSC25998	2.91e5	3.27e5	7.98e5	8.64e5
Cyp4e3	DRSC03306	1.54e5	69483	1.61e6	1.00e6
Cyp4e3	DRSC26425	3.11e5	2.50e5	6.97e5	8.04e5

Continued, starting with the last 3 of the part before.
Target gene	dsRNA	firefly reporter light, replicate 1	firefly reporter light, replicate 2	Renilla control light, replicate 1	Renilla control light, replicate 2
CG3328	DRSC25998	2.91e5	3.27e5	7.98e5	8.64e5
Cyp4e3	DRSC03306	1.54e5	69483	1.61e6	1.00e6
Cyp4e3	DRSC26425	3.11e5	2.50e5	6.97e5	8.04e5
He	DRSC28434	7.51e5	7.79e5	8.96e5	1.03e6
Rad1 + Sws1	DRSC00778	1.12e5	1.24e5	7.96e5	7.16e5
hbt	DRSC02549	1.71e5	1.93e5	1.44e6	1.43e6
hbt	DRSC25187	1.09e6	7.31e5	7.03e5	8.30e5
hubl	DRSC06825	3.38e5	3.77e5	2.45e6	1.83e6
fkh	DRSC16949	1.34e5	1.72e5	2.18e6	2.87e6
fkh	DRSC28213	6.27e5	8.95e5	1.22e6	1.78e6
Lcp65APsi	DRSC08795	1.31e5	1.52e5	1.34e5	1.25e5
Lcp65APsi	DRSC10342	2.39e5	2.46e5	2.19e6	2.62e6
Rh6	DRSC16823	96022	1.26e5	1.82e6	1.40e6
Rh6	DRSC26166	3.13e5	1.95e5	8.13e5	4.87e5
dimm	DRSC03100	1.73e5	2.07e5	1.57e6	1.38e6
Acp33A + CG15841 (retired record)	DRSC01859	2.50e5	3.15e5	1.71e6	1.84e6
yip3	DRSC04724	2.37e5	2.10e5	1.69e6	1.42e6
CG10383	DRSC02050	8.06e5	8.18e5	2.05e6	2.43e6
CG10383	DRSC29310	6.62e5	8.58e5	9.88e5	1.10e6
CG40228	DRSC37832	1.20e6	8.45e5	3.30e6	2.37e6
NTPase	DRSC00761	8.51e5	8.32e5	1.92e6	1.22e6
NTPase	DRSC26233	4.09e5	3.95e5	7.75e5	6.73e5
